Patent US5770380A (priority 1996, dated 1998)
Part of at least one peptide drawing is inferred or uncertain, most often the ends. Numbered stars: 1 amine (or outer) side, 2 acyl side, 3 side chain; on linkers, the order of the positions; unused ones are H or OH. Square brackets hold non-standard residues; d marks the D form. Peptide text beside a SMILES is read from it. X1 = O=C(c1cc(CN[*:1])cc([N+](=O)[O-])c1)[*:2]

Protein sequences, listed by entry. Tags and fused reporters are not part of them. Residues count along the entry.
UniProt P01501, 44-69 limits assumed: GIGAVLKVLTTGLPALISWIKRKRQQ

Target: melittin (Apis mellifera, UniProt P01501)
Type: binding, bee

## O=C(O)C[C@@H]1NC(=O)CNC(=O)c2cc(cc([N+](=O)[O-])c2)CNC(=O)[C@H](CC(=O)O)NC(=O)CNC1=O [compound 2, reference compound] (cyclo(DGD[X1]G))
  effect on melittin fluorescence: did not effect the fluorescence of melittin as much
